This is an account of results in article PMC11558135.

By UniProt entry, the sequences of proteins in these tests, tags left out.
UniProt P62960: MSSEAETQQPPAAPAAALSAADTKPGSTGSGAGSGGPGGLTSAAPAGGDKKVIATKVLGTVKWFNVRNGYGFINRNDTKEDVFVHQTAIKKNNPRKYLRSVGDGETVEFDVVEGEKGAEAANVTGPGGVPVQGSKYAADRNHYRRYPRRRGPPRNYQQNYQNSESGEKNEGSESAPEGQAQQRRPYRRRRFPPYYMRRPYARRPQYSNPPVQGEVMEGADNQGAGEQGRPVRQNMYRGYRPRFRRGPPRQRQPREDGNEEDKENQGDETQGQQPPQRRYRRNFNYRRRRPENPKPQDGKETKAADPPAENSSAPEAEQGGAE

The test has as its target Y-box-binding protein 1 (YBX1), endogenous (mouse (endogenous in mouse spinal cord tissue; the species of the primary neurons is not stated)) (UniProt P62960). The test can be described thus: affinity purification with mass spectrometry; IP of YBX1, products separated by SDS-PAGE, Coomassie stained, target gel area analysed by MS; source of the sample not stated.

Results are given in words; binding and its absence hold for the method and conditions named. In cells and extracts the contact can be indirect. A yes stands for co-enrichment or nearness to the bait. Other partners may have been found.

B1: E3 ubiquitin ligase TRIM56, endogenous (protein, UniProt Q80VI1 1-734)
chain: MNSKVSSPTLLEALSSDFLACKICLEQLHTPKTLPCLHTYCQDCLAQLDIGGQVRCPECREIVPVPAEGVAAFKTNFFVNGLLDLVKARAPGDVHSGKPTCALCPLVGGKSSGGPATARCLDCADDLCQACADGHRCSRQTHKHRVVDLVGYRAGWYDEEARERQASQCPQHPGEALCFLCQPCSQLLCKDCRLGPHIDHPCLPLAEAVRSRKPGLEELLAGVDSNLVELEATRVAEKEALALLREQAASVGTQVEEAAERILKSLLAQKQEVLGQLRALVEAAEEATRERLTKIERQEQVAKAAAAFARRVLSLGLEAEILSLEGAITQRLRQLQDAPWTSGPTRCVLPQLELHPGLEDKNCHLLRLIFEEPKQSPKDSGKGGAGTQGGDEAQGQGDDRTKIGKQGGAQPLTPKEGKDQNPQEDDGVFIERGNRPNKKKKCKGRGKSVSREPSPILRPNLEGSGLLPRPVFSWSFPTRMPGDKRSPRITGLCPYGPQEILVADEQNRVLKRFSLNGDYKGTVQVPEGCSPCSVAALQNAVAFSANAKLYLVSPDGEIQWRRSLSLTQSSHAVAAMPCGDRVAVSVAGHVEVYKKDGSLATRFIPGGKASRGQRALVFLTTSPQGNFVGSDWQQNSVVFCDGLGQVIWEYKGPGLHGCQPGSVSVDKKGYIFLTLREVNKVVILDPKGSLLGDFLTAYHGLEKPRVTTMVDGKYLVVSLSNGTIHVFRVRFPDS
As for B1, the binding result is reported as “binds”.
